# Data reported in PubChem BioAssay AID1688 (National Center for Advancing Translational Sciences (NCATS), 2009).
# Out of some 220,000 compounds screened, about 2,400 (1.1%) were called active. This list was built around the results that the source calls inconclusive (neither active nor inactive); the mix of calls is not that of the screen. Calls come from the whole dose curve; as a rule, active = well fitted inhibition curve with a large enough effect; inconclusive = small, poorly fitted or top-dose-only effect, or effect the other way; inactive = no such curve, though single readings can be large or run the other way. Potencies beside an inconclusive call are fits to weak or partial responses and may not hold up.
# Experiment: qHTS Multiplex Assay to Identify Dual Action Probes in a Cell Model of Huntington: Aggregate Formation (GFP); note: nearly all actives have a fitted effect of over 60% in size
# Conditions: PC12 HttQ103-GFP aggregates, Acumen cytometry, 40 h; activity change, negative = inhibition: at 46.1 µM (top of the series) unless noted
# Procedure, shortened: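 Compounds (qHTS titration) were added to PC12 cells expressing an ecdysone-driven HTT exon 1 Q103–GFP fusion after induction with 100 nM tebufenozide. Aggregate formation was measured as GFP objects in cell lysates.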
# % is set by controls: 0 for no effect and ±100 for the full control effect; potency is the fitted concentration of half-maximal effect.
SMILES,Potency,"activity change, negative = inhibition"
O=C(c1ccc(Cl)c(Cl)c1)N1CCC(=O)N(C(COCc2ccc(Cl)cc2)Cc2ccccc2)CC1 (stereo not given),"inconclusive: 17.8 µM [inhibitor, single point]",
CC(=O)Nc1ccccc1N(CC(O)Cn1c2ccccc2c2ccccc21)S(=O)(=O)c1ccc(C)cc1 (stereo not given),"inconclusive: 35.5 µM [inhibitor, single point]",
CNc1ccc(Br)cc(C(=O)/C=C/c2cccc(OC)c2OC)c1=O,"inconclusive: 8.91 µM [activator, single point]",
Cc1ccc(C)c(OCc2nc3ccccc3[nH]2)c1,,inactive: -2.83%
CCN1/C(=C/C=C/c2oc3ccc4ccccc4c3[n+]2CC)Oc2ccc3ccccc3c21,active: 0.891 µM,
O=C(NC(=S)N1CCCc2ccccc21)c1ccc([N+](=O)[O-])cc1,"inconclusive: 35.5 µM [inhibitor, single point]",
O=C(O)COc1ccccc1/C=C1\SC(=Nc2ccc(F)cc2)N(c2ccc(F)cc2)C1=O,,inactive: 11.3%
Cc1ccc(NC(=O)CN(C)C(=O)Cn2ncc(Cl)c(Cl)c2=O)cc1,"inconclusive: 3.16 µM [activator, single point]",
Cc1nn(-c2cccc(C(F)(F)F)c2)c(Cl)c1/C=N/Nc1cccc(C(=O)O)c1,,inactive: 27.7%
COC(=O)c1ccc(C)c(NC(=O)CCNC(=O)c2ccc([N+](=O)[O-])cc2)c1,"inconclusive: 35.5 µM [activator, single point]",
CSc1ccccc1N1CCN(C(=O)Nc2ccc3c(c2)NC(=O)CO3)CC1,"inconclusive: 35.5 µM [inhibitor, single point]",
Cc1ccccc1CSCc1nc(N)nc(Nc2ccccc2C)n1,,inactive: -6.98%
CCOC(=O)N1CCC(c2cc(=O)n3[nH]c(C)c(-c4ccc(F)cc4)c3n2)CC1,active: 11.2 µM,
Cc1ccc(-n2[nH]c(C)c(/C=N/NC(=O)c3ccc([N+](=O)[O-])cc3)c2=O)c(C)c1,active: 12.6 µM,
CC(C)CC(=O)N/C(N)=N/c1nc2ccccc2s1,"inconclusive: 11.2 µM [inhibitor, single point]",
CC1CC(C)(C)NC(C)c2ccccc21 (stereo not given),,inactive: -9.58%
O=C(CSc1nccn1-c1ncc(C(F)(F)F)cc1Cl)c1ccc(Cl)cc1,,inactive: 9.89%
CC(=O)NC(=S)Nc1ccc(NC(=O)c2cccs2)cc1,"inconclusive: 6.31 µM [activator, partial curve, poor fit]",
CCCN(CCC)S(=O)(=O)c1ccc(C(=O)Nc2nnc(CSC)o2)cc1,active: 11.2 µM,
COc1ccc(/C=C/C(=O)OC2CCCN(C)C2)cc1 (stereo not given),"inconclusive: 2.51 µM [activator, full curve, poor fit]",

# Looked up above.
# `CNc1ccc(Br)cc(C(=O)/C=C/c2cccc(OC)c2OC)c1=O` | Potency: inconclusive: 8.91 µM [activator, single point]
# `Cc1ccccc1CSCc1nc(N)nc(Nc2ccccc2C)n1` | activity change, negative = inhibition: inactive: -6.98%
